In this series the test system is Rad51. In words: EMSA. To be noted: EMSA: 1 ng probe, 1 ug poly dG/dC, 120 ng protein, 2 ul of 5x buffer (10 mM HEPES pH 7.5, 10 mM KCl, 10 mM MgCl2, 1 mM DTT, 1 mM EDTA, 10% glycerol), recombinant protein, label: 5'-biotin, single-stranded DNA.

The exact form of at least one protein or probe is not confirmed. The comparison behind a weaker result is the experiment's own reference, which may not be listed here. At least one verdict rests on a figure or table, not on a statement of the authors.

For “AAATCAATCTAAAGTATATATGAGTAAACTTGGTCTGACAGTTACCAATGCTTAATCAGTGAGGCACCTATCTCAGCGATCTGTCTATTT [ssDNA EMSA probe]”, the binding result is, setting by setting: (+ Nanog C terminus (inhibitor)) “binds more weakly”; (+ Nanog CD2 (strongest repression of the C subregions)) “binds more weakly”; (+ Nanog DB homeodomain (no repressive effect)) “binds”; (+ Nanog N terminus (no repressive effect)) “binds”; (+ full-length Nanog (inhibitor)) “binds more weakly”; (no Nanog, 10 mM MgCl2 in reaction buffer as printed, no ATP listed) “binds”.

The values are drawn from PMC8882189.
